# Reference: PubChem BioAssay AID686937 (Drosophila RNAi Screening Center, 2013)
# Assay: 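Genes in the fly needed for secretion of protein constitutively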 (primary screen)
# Cells: Drosophila S2 cells expressing secreted horseradish peroxidase
# Reagents: long dsRNA against Drosophila genes
# Time to read-out: about 5.5 days (5 days dsRNA, then 12 h reporter induction)
# Conditions: reporter expression induced after 5 days of dsRNA, read 12 h later; inducer not stated
# Measurement: 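Chemiluminescent measurement of peroxidase in the medium 12 h after reporter induction, following 5 days of dsRNA, given as a z-score per plate; higher means more secretion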
# Scale: z-score: higher = more reporter secreted into medium
# The deposit covers about 23,000 reagents; this is a random part of those that have a named target and a result. 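Reduced-secretion tags in replicate 1 do not always agree with the z-scores; no criterion for assigning the tags was given.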 A plus sign joins genes that one reagent is predicted to hit. Not stated in the record: the amount of reagent.
predicted target,dsRNA,"z-score, replicate 1","z-score, replicate 2","z-score, replicate 3","z-score, replicate 4","phenotype, replicate 1"
Mondo,DRSC02667,0.33,0.21,,,
Mondo,DRSC02668,-0.17,-0.09,,,
Mondo,DRSC22006,0.19,0.12,,,
CG30172,DRSC21519,0.17,-0.23,,,
CCHa1-R (CCHamide-1 receptor),DRSC06456,0.12,0.33,,,
CCHa1-R (CCHamide-1 receptor),DRSC06715,0.08,0.29,,,
Gr64b + Gr64c,DRSC08444,0.72,-0.62,,,
Gr64b + Gr64c,DRSC08445,0.53,0.37,,,
CG7824,DRSC16321,0.41,0.36,,,
Hr83 (Hormone receptor 83),DRSC12521,0.16,0.21,,,
SkpC (SKP1-related C),DRSC20375,0.53,0.43,,,
CG30491,DRSC21472,0.24,0.17,,,
mRpL13 (mitochondrial ribosomal protein L13),DRSC02076,0.49,0.12,,,
CG11504,DRSC14318,0.36,0.37,,,
CG4098,DRSC10399,0.35,0.32,,,
CG31468,DRSC13637,0.65,0.35,,,
CG5823,DRSC15881,0.29,0.18,,,
CG5039,DRSC15703,0.3,0.23,,,
CG14126 (retired record),DRSC10130,0.19,0.3,,,
chinmo (Chronologically inappropriate morphogenesis),DRSC00292,0.07,0.32,,,
chinmo (Chronologically inappropriate morphogenesis),DRSC00485,0.04,-0.2,,,
chinmo (Chronologically inappropriate morphogenesis),DRSC00509,-1.68,-0.53,,,reduced secretion
chinmo (Chronologically inappropriate morphogenesis),DRSC22413,-0.3,0.23,,,
CG10793,DRSC17760,0.32,0.44,,,
PolE4 (DNA polymerase epsilon subunit 4),DRSC04105,0.28,0.36,,,
CG9030,DRSC20139,0.06,0.27,,,
CG13708,DRSC08317,0.28,0.28,,,
Polr2J (RNA polymerase II subunit J),DRSC02995,-0.3,-0.85,,,
sba (six-banded),DRSC13643,-1.88,-0.62,,,reduced secretion
sba (six-banded),DRSC17050,0.48,0.44,0.37,0.28,
Est-Q (Esterase Q),DRSC11835,0.26,0.34,,,
Ccp84Ae,DRSC12590,0.28,0.58,0.14,0.25,
CG3164,DRSC00572,0.2,-0.15,,,
mesh,DRSC14472,0.75,0.51,0.38,0.26,
mesh,DRSC15098,0.1,0.03,,,
mesh,DRSC15099,0.36,0.27,,,
CG14069,DRSC02372,-0.4,-0.07,,,
CG12507,DRSC19463,0.35,0.64,,,
unc-13-4A,DRSC10201,0.35,0.32,,,
unc-13-4A,DRSC10202,0.11,0.04,,,
unc-13-4A,DRSC10203,-4.54,-3.53,,,reduced secretion
unc-13-4A,DRSC11013,0.24,0.41,,,
E(var)3-9 (Enhancer of variegation 3-9),DRSC14451,0.29,0.31,,,
gnu (giant nuclei),DRSC10497,0.32,0.22,,,
smash (smallish),DRSC12139,0.04,0.05,,,
smash (smallish),DRSC12141,0.31,0.4,,,
smash (smallish),DRSC12239,0.01,-0.15,,,
smash (smallish),DRSC12289,0.27,0.46,,,
Kah (Kahuli),DRSC07887,0.85,0.47,,,
Kah (Kahuli),DRSC08515,0.53,0.19,,,
Galt (Galactose-1-phosphate uridylyltransferase),DRSC03161,0.37,0.21,,,
CG3611,DRSC04395,0.16,0.22,,,
Fcp3C (Follicle cell protein 3C),DRSC18665,0.44,0.4,,,
Dtd (D-aminoacyl-tRNA deacylase),DRSC15362,0.08,0.1,,,
E(z) (Enhancer of zeste),DRSC11147,0.66,0.5,,,
Scr (Sex combs reduced),DRSC12604,-1.47,-2.7,,,
mfrn (mitoferrin),DRSC15687,0.06,-1.42,,,
Mcm10 (Minichromosome maintenance 10),DRSC03162,0.12,0.21,,,
Muc68Ca (Mucin 68Ca),DRSC10312,0.61,0.68,,,
Muc68Ca (Mucin 68Ca),DRSC10313,0.29,0.49,,,
CG2608,DRSC02709,0.32,0.33,,,
Ror,DRSC03414,-0.01,0.24,,,
CG5104,DRSC11765,0.27,0.37,,,
CG33966,DRSC08256,0.58,0.35,,,
RtcB (RtcB RNA ligase),DRSC03280,0.24,0.36,,,
CG12990,DRSC19510,0.19,0.35,,,
CG3107,DRSC04888,0.32,0.09,,,
Npc2b (Niemann-Pick type C-2b),DRSC15464,0.16,0.39,,,
CG15553,DRSC15091,0.44,0.41,,,
CG14969,DRSC08428,0.32,0.63,,,
TwdlL (TweedleL),DRSC16042,0.07,0.15,,,
CG14915,DRSC02399,-0.92,-0.71,,,
CG8159,DRSC16392,0.17,0.1,,,
Acsf2 (Acyl-CoA synthetase family member 2),DRSC02172,0.43,0.49,,,
CG7656,DRSC10900,0.37,0.49,,,
CG5282,DRSC11775,0.35,0.45,,,
CG31288,DRSC14667,0.19,0.19,,,
enc (encore),DRSC08716,0.2,0.22,,,
CG1791,DRSC18141,0.53,0.5,,,
upd1 (unpaired 1),DRSC20358,0.18,0.53,,,
Phae2 (Phaedra 2),DRSC02555,0.17,-0.13,,,
CG8401,DRSC07165,0.39,0.21,,,

10 entries from above, reformatted.
{"predicted target":"CG14915","dsRNA":"DRSC02399","z-score, replicate 1":-0.92,"z-score, replicate 2":-0.71}
{"predicted target":"CG8159","dsRNA":"DRSC16392","z-score, replicate 1":0.17,"z-score, replicate 2":0.1}
{"predicted target":"Acsf2 (Acyl-CoA synthetase family member 2)","dsRNA":"DRSC02172","z-score, replicate 1":0.43,"z-score, replicate 2":0.49}
{"predicted target":"CG7656","dsRNA":"DRSC10900","z-score, replicate 1":0.37,"z-score, replicate 2":0.49}
{"predicted target":"CG5282","dsRNA":"DRSC11775","z-score, replicate 1":0.35,"z-score, replicate 2":0.45}
{"predicted target":"CG31288","dsRNA":"DRSC14667","z-score, replicate 1":0.19,"z-score, replicate 2":0.19}
{"predicted target":"enc (encore)","dsRNA":"DRSC08716","z-score, replicate 1":0.2,"z-score, replicate 2":0.22}
{"predicted target":"CG1791","dsRNA":"DRSC18141","z-score, replicate 1":0.53,"z-score, replicate 2":0.5}
{"predicted target":"upd1 (unpaired 1)","dsRNA":"DRSC20358","z-score, replicate 1":0.18,"z-score, replicate 2":0.53}
{"predicted target":"Phae2 (Phaedra 2)","dsRNA":"DRSC02555","z-score, replicate 1":0.17,"z-score, replicate 2":-0.13}
